Data source: PubChem BioAssay AID1159578 (Peter MacCallum Cancer Centre, 2015)
The deposit covers about 18,000 reagents; this is a part drawn at random. About 1,030 of them (5.7%) count as active. 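Inactive calls also include pools with fewer than 3300 nuclei, whose migration was not assessed.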 Raw values are not corrected between plates. A number with no mark means an inactive call. No sequences are given here.

Aim: 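Genome-wide hunt for genes controlling movement of lymphatic endothelial cells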 (primary screen)
Cell system: human lymphatic endothelial cells
Knock-down reagent: siRNA pool against human genes, 40 nM
Timing: 48 h after transfection
Measured: 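High-content imaging of dye-stained cells in a scratch assay measures filled wound area and nuclei per well; duplicate means given as ratio to mock and robust z-score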
Scale: migration robust z-score: higher = faster migration into the scratch; migration relative to mock: higher = more scratch area covered than mock; nuclei per well: higher = more cells in the well
Hit rule: 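Pools averaging fewer than 3300 nuclei are never called; remaining pools count as changed when migration robust z lies outside -2 to 2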
Calls: active = migration changed; inactive = no migration change, or too few cells

| Target gene | migration robust z-score | migration class with cell-count check | migration relative to mock | nuclei per well, duplicate mean |
| --- | --- | --- | --- | --- |
| NDUFB11 | 0.9 | migration z between -2 and 2; enough cells | 1.12 | 6394 |
| DHRS13 | -1.04 | migration z between -2 and 2; enough cells | 0.6 | 5134 |
| SOAT1 | -0.57 | under 3300 nuclei; migration not judged | 0.7 | 3180 |
| OTOF | 1.04 | migration z between -2 and 2; enough cells | 1.16 | 5464 |
| FBF1 | 0.13 | migration z between -2 and 2; enough cells | 0.92 | 6523 |
| EGF | -0.96 | migration z between -2 and 2; enough cells | 0.62 | 4071 |
| LZTFL1 | 1.14 | migration z between -2 and 2; enough cells | 1.18 | 5807 |
| OTOS | -2.65 (active) | migration z below -2; enough cells | 0.2 | 6307 |
| MPV17L2 | -1.09 | migration z between -2 and 2; enough cells | 0.6 | 6687 |
| SMIM8 | -0.54 | migration z between -2 and 2; enough cells | 0.75 | 4904 |
| IDI2 | -0.08 | migration z between -2 and 2; enough cells | 0.79 | 5794 |
| AEN | 0.39 | migration z between -2 and 2; enough cells | 0.98 | 6082 |
| NUBP2 | 0.91 | migration z between -2 and 2; enough cells | 0.98 | 5568 |
| PHLPP1 | -0.44 | migration z between -2 and 2; enough cells | 0.72 | 6397 |
| ZC3H11D | 0.94 | migration z between -2 and 2; enough cells | 1.13 | 5726 |
| PRPF39 | 0.52 | migration z between -2 and 2; enough cells | 1.02 | 6565 |
| AP3D1 | 1.42 | migration z between -2 and 2; enough cells | 1.25 | 4662 |
| UBA6 | 0.15 | migration z between -2 and 2; enough cells | 0.84 | 6037 |
| SGK3 | -2.56 (active) | migration z below -2; enough cells | 0.31 | 4634 |
| ZFTRAF1 | 1.26 | migration z between -2 and 2; enough cells | 1.21 | 6155 |
| DYNAP | -2.15 (active) | migration z below -2; enough cells | 0.32 | 5618 |
| MPV17L | -0.01 | migration z between -2 and 2; enough cells | 0.88 | 4802 |
| CD27 | -0.39 | migration z between -2 and 2; enough cells | 0.73 | 5851 |
| RBP4 | 0 | migration z between -2 and 2; enough cells | 0.8 | 3430 |
| NIT2 | -1.79 | migration z between -2 and 2; enough cells | 0.46 | 4069 |
| POMZP3 | 0.69 | migration z between -2 and 2; enough cells | 1.06 | 6840 |
| HAPLN2 | -1.12 | migration z between -2 and 2; enough cells | 0.6 | 5934 |
| SIRT2 | 0.01 | migration z between -2 and 2; enough cells | 0.88 | 6314 |
| STOML1 | -0.64 | migration z between -2 and 2; enough cells | 0.72 | 4410 |
| CUL4A | 0.93 | migration z between -2 and 2; enough cells | 0.98 | 5528 |
| DSG2 | 0.95 | migration z between -2 and 2; enough cells | 1.13 | 6864 |
| BEGAIN | 2 | migration z between -2 and 2; enough cells | 1.4 | 5678 |
| LIAT1 | 1.71 | migration z between -2 and 2; enough cells | 1.34 | 5234 |
| GABARAP | -0.39 | migration z between -2 and 2; enough cells | 0.73 | 6297 |
| WNK4 | -0.6 | migration z between -2 and 2; enough cells | 0.69 | 6003 |
| TBC1D17 | 1.22 | migration z between -2 and 2; enough cells | 1.2 | 3458 |
| VMAC | 1.65 | migration z between -2 and 2; enough cells | 1.31 | 6873 |
| TTLL10 | -0.28 | migration z between -2 and 2; enough cells | 0.82 | 5218 |
| UNC13D | 0.8 | migration z between -2 and 2; enough cells | 1.1 | 6226 |
| GFAP | 0.84 | migration z between -2 and 2; enough cells | 1.1 | 6355 |
| ZNG1F | -2.04 (active) | migration z below -2; enough cells | 0.36 | 6198 |
| TMEM259 | -1.43 | migration z between -2 and 2; enough cells | 0.52 | 5090 |
| RASSF7 | 1.57 | migration z between -2 and 2; enough cells | 1.29 | 4728 |
| ATXN7L2 | 0.46 | migration z between -2 and 2; enough cells | 1 | 6132 |
| NFATC3 | 0.88 | migration z between -2 and 2; enough cells | 0.98 | 6100 |
| TOR1B | 0.16 | migration z between -2 and 2; enough cells | 0.93 | 4652 |
| GSDMB | 0.77 | migration z between -2 and 2; enough cells | 1.08 | 5986 |
| ATG9B | 1.54 | migration z between -2 and 2; enough cells | 1.29 | 5766 |
| SFPQ | 0.37 | migration z between -2 and 2; enough cells | 0.98 | 5746 |
| ZNF451 | -0.15 | migration z between -2 and 2; enough cells | 0.85 | 4422 |
| ZNF502 | 2.02 (active) | migration z above 2; enough cells | 1.4 | 5235 |
| LRRC56 | 0.64 | migration z between -2 and 2; enough cells | 1.05 | 6364 |
| PURB | -0.34 | migration z between -2 and 2; enough cells | 0.8 | 4939 |
| TNFRSF10A | -0.39 | migration z between -2 and 2; enough cells | 0.73 | 4238 |
| CSAG1 | 1.08 | migration z between -2 and 2; enough cells | 1.17 | 4997 |
| SLC66A2 | 0.25 | migration z between -2 and 2; enough cells | 0.94 | 6267 |
| TCTN2 | 0.48 | migration z between -2 and 2; enough cells | 1.01 | 6393 |
| LARP6 | 0.22 | migration z between -2 and 2; enough cells | 0.94 | 6227 |
| OR6F1 | 0.6 | migration z between -2 and 2; enough cells | 1.04 | 4684 |
| AKAP8 | -0.42 | migration z between -2 and 2; enough cells | 0.72 | 5202 |
| BAIAP2 | -1.09 | migration z between -2 and 2; enough cells | 0.6 | 4458 |
| SH2D6 | -0.36 | migration z between -2 and 2; enough cells | 0.79 | 5924 |
| ILDR2 | 0.28 | migration z between -2 and 2; enough cells | 0.96 | 5682 |
| LIPE | -0.52 | migration z between -2 and 2; enough cells | 0.71 | 5422 |
| ADGRF5 | 1.06 | migration z between -2 and 2; enough cells | 1.01 | 5654 |
| RBM28 | -0.56 | migration z between -2 and 2; enough cells | 0.74 | 5416 |
| DND1 | -1.96 | migration z between -2 and 2; enough cells | 0.38 | 5466 |
| CPNE1 | -0.92 | migration z between -2 and 2; enough cells | 0.65 | 4544 |
| SNRPC | -0.21 | migration z between -2 and 2; enough cells | 0.83 | 5780 |
| TSPAN7 | -0.1 | migration z between -2 and 2; enough cells | 0.86 | 6120 |
| CHMP1A | -0.11 | migration z between -2 and 2; enough cells | 0.78 | 4589 |
| GPR137B | -0.26 | migration z between -2 and 2; enough cells | 0.76 | 4982 |
| CSNK1G2 | 0.5 | migration z between -2 and 2; enough cells | 0.9 | 4190 |
